Test: Solubility of sirolimus in diethylene glycol monoethyl ether
Assay type: physicochemical
Settings: can be dissolved at up to
Excerpt: Sirolimus or the sirolimus derivative is soluble in the diethylene glycol ether. Sirolimus dissolves well in the diethylene glycol monoethyl ether, and can be dissolved therein at up to 2.02 W/V %.

SMILES: CO[C@H]1C[C@@H]2CC[C@@H](C)[C@@](O)(O2)C(=O)C(=O)N2CCCC[C@H]2C(=O)O[C@H]([C@H](C)C[C@@H]2CC[C@@H](O)[C@H](OC)C2)CC(=O)[C@H](C)/C=C(\C)[C@@H](O)[C@@H](OC)C(=O)[C@H](C)C[C@H](C)/C=C/C=C/C=C/1C [Sirolimus, sirolimus]
- solubility in diethylene glycol monoethyl ether: up to 2.02 W/V %
